From paper PMC10671598
These are yes or no findings as the source states them, for the method shown. Binding seen in cells or lysates may run through a third protein. A result given as binding can be weak or reduced; the word gives no strength. Sequences can lack the tags named with a protein.

Biological target: T1, RNF138-Flag (human) (UniProt Q8WVD3)
T1 sequence: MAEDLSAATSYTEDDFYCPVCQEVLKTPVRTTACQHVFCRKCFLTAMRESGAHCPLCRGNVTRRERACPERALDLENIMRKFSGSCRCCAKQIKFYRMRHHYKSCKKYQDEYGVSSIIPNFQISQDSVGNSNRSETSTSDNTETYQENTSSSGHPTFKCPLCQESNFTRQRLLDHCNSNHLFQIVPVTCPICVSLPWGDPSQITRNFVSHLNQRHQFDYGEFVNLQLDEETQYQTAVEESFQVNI
Test: co-IP; HEK293T transfected with the indicated plasmids for 24 h; lysis buffer 20 mM Tris pH 7.5, 150 mM NaCl, 1% Triton X-100, 1 mM EDTA; Flag beads or the indicated antibody with protein A/G agarose, 4 °C overnight; immunoblot; for PTEN-IRF3 also with myc-RNF138 co-expressed or in RNF138-KO cells

IAD domain of IRF3 (domain or fragment)
binding: binds
